Measured values as given in PMC6468293, “Double autoinhibition mechanism of signal transduction ATPases with numerous domains (STAND) with a tetratricopeptide repeat sensor” (Nucleic Acids Research, 2019).
Substitutions are numbered along the chain they refer to. In names and notes the source's numbering stands. Results are given in words; binding and its absence hold for the method and conditions named. Sequences can lack the tags named with a protein.

Columns and labels:
[1] = target: His6-tagged MalT (Escherichia coli maltose system regulator), wild type (E. coli) (UniProt P06993); test: condition: only at 10 μM (with ADP, no maltotriose); SEC; analytical Superdex 200 (column with a shifted calibration curve), same buffer with 0.1 mM ADP, no maltotriose; R171E variants at the indicated concentrations up to 60 μM; wt MalT at 10 μM as monomer reference; both purified
[2] = target: His6-tagged MalT (Escherichia coli maltose system regulator), wild type (E. coli) (UniProt P06993); test: SEC; analytical Superdex 200 PC3.2/30, room temperature; reducing conditions; without the inducer maltotriose (Supplementary Figure S9); both purified
[3] = target: His6-tagged MalT (Escherichia coli maltose system regulator), wild type (E. coli) (UniProt P06993); test: condition: only at low concentration (with ADP, no maltotriose); SEC; analytical Superdex 200, room temperature; Tris-HCl 50 mM pH 8.0, 10% sucrose, 0.033 M K3 citrate, 10 mM Mg acetate, 0.1 mM EDTA, 1 mM DTT, 0.1 mM ADP; no maltotriose; low protein concentration (2.5 μM); both purified
[4] = target: His6-tagged MalT^M96C (E. coli) (UniProt P06993); test: SEC; analytical Superdex 200 PC3.2/30, room temperature; reducing conditions; without the inducer maltotriose (Supplementary Figure S9); both purified
[5] = target: His6-tagged MalT^H562C (E. coli) (UniProt P06993); test: as above
[6] = target: His6-tagged MalT^M96C,H562C (E. coli) (UniProt P06993); test: as above
[7] = target: His6-tagged MalT^M96T (E. coli) (UniProt P06993); test: condition: only at low concentration (with ADP, no maltotriose); SEC; analytical Superdex 200, room temperature; Tris-HCl 50 mM pH 8.0, 10% sucrose, 0.033 M K3 citrate, 10 mM Mg acetate, 0.1 mM EDTA, 1 mM DTT, 0.1 mM ADP; no maltotriose; low protein concentration (2.5 μM); both purified
[8] = target: His6-tagged MalT^R171E (E. coli) (UniProt P06993); test: SEC; analytical Superdex 200 (column with a shifted calibration curve), same buffer with 0.1 mM ADP, no maltotriose; R171E variants at the indicated concentrations up to 60 μM; wt MalT at 10 μM as monomer reference; both purified
[9] = target: His6-tagged MalT^M96T,R171E (E. coli) (UniProt P06993); test: as above

B1: His6-tagged MalT (Escherichia coli maltose system regulator), wild type (natural protein, E. coli, UniProt P06993 1-901, looked up)
chain: MLIPSKLSRPVRLDHTVVRERLLAKLSGANNFRLALITSPAGYGKTTLISQWAAGKNDIGWYSLDEGDNQQERFASYLIAAVQQATNGHCAICETMAQKRQYASLTSLFAQLFIELAEWHSPLYLVIDDYHLITNPVIHESMRFFIRHQPENLTLVVLSRNLPQLGIANLRVRDQLLEIGSQQLAFTHQEAKQFFDCRLSSPIEAAESSRICDDVSGWATALQLIALSARQNTHSAHKSARRLAGINASHLSDYLVDEVLDNVDLATRHFLLKSAILRSMNDALITRVTGEENGQMRLEEIERQGLFLQRMDDTGEWFCYHPLFGNFLRQRCQWELAAELPEIHRAAAESWMAQGFPSEAIHHALAAGDALMLRDILLNHAWSLFNHSELSLLEESLKALPWDSLLENPQLVLLQAWLMQSQHRYGEVNTLLARAEHEIKDIREDTMHAEFNALRAQVAINDGNPDEAERLAKLALEELPPGWFYSRIVATSVLGEVLHCKGELTRSLALMQQTEQMARQHDVWHYALWSLIQQSEILFAQGFLQTAWETQEKAFQLINEQHLEQLPMHEFLVRIRAQLLWAWARLDEAEASARSGIEVLSSYQPQQQLQCLAMLIQCSLARGDLDNARSQLNRLENLLGNGKYHSDWISNANKVRVIYWQMTGDKAAAANWLRHTAKPEFANNHFLQGQWRNIARAQILLGEFEPAEIVLEELNENARSLRLMSDLNRNLLLLNQLYWQAGRKSDAQRVLLDALKLANRTGFISHFVIEGEAMAQQLRQLIQLNTLPELEQHRAQRILREINQHHRHKFAHFDENFVERLLNHPEVPELIRTSPLTQREWQVLGLIYSGYSNEQIAGELEVAATTIKTHIRNLYQKLGVAHRQDAVQHAQQLLKMMGYGV
notes: MalT, E. coli, His-tagged version encoded by pOM206 (pET24a(+) derivative); Purified in two buffers (with ATP/KCl; or K3 citrate without nucleotide) to serve as control for the variants; Details of the plasmid are in the Supplementary Materials and Methods; also called wt MalT; wild-type MalT; source: E. coli pop8012 (a BL21 ΔmalT strain) with pOM206, purified (nickel-agarose chromatography, …)
B1 was tested, and the binding [1] was “no binding”, the binding [2] was “no binding (condition: in the absence of maltotriose)” and the binding [3] was “no binding”.

B2: His6-tagged MalT^M96C (natural protein, E. coli, UniProt P06993 1-901, looked up)
chain: B1 chain with M96C
notes: MalT, E. coli, His-tagged, pOM206 derivative; source: E. coli pop8012 (a BL21 ΔmalT strain) with a pOM206 derivative, purified (nickel-agarose chromatography, Superdex 200)
In the case of B2, the binding [4] is reported as “no binding (condition: in the absence of maltotriose)”.

B3: His6-tagged MalT^H562C (natural protein, E. coli, UniProt P06993 1-901, looked up)
chain: B1 chain with H562C
notes: as for B2
For B3, the binding [5] was “no binding (condition: in the absence of maltotriose)”.

B4: His6-tagged MalT^M96C,H562C (natural protein, E. coli, UniProt P06993 1-901, looked up)
chain: B1 chain with M96C, H562C
notes: as for B2
With B4 the binding [6] was “no binding (condition: in the absence of maltotriose)”.

B5: His6-tagged MalT^M96T (natural protein, E. coli, UniProt P06993 1-901, looked up)
chain: B1 chain with M96T
notes: MalT, E. coli, His-tagged, pOM206 derivative; About 20% aggregated after purification without nucleotide; concentration was corrected for this; also called M96T variant
B5 was tested, and the binding [7] was “no binding”.

B6: His6-tagged MalT^R171E (protein, UniProt P06993 1-901)
chain: B1 chain with R171E
In the case of B6, the binding [8] is reported as “no binding (tested: 60 μM)”.

B7: His6-tagged MalT^M96T,R171E (protein, UniProt P06993 1-901)
chain: B1 chain with M96T, R171E
With B7 the binding [9] was “no binding (tested: 60 μM)”.
